9 molecules from PMC4019850 can be followed below.

The chains behind the UniProt entries cited, without tags or fusion partners. Residues count along the entry.
UniProt P26045: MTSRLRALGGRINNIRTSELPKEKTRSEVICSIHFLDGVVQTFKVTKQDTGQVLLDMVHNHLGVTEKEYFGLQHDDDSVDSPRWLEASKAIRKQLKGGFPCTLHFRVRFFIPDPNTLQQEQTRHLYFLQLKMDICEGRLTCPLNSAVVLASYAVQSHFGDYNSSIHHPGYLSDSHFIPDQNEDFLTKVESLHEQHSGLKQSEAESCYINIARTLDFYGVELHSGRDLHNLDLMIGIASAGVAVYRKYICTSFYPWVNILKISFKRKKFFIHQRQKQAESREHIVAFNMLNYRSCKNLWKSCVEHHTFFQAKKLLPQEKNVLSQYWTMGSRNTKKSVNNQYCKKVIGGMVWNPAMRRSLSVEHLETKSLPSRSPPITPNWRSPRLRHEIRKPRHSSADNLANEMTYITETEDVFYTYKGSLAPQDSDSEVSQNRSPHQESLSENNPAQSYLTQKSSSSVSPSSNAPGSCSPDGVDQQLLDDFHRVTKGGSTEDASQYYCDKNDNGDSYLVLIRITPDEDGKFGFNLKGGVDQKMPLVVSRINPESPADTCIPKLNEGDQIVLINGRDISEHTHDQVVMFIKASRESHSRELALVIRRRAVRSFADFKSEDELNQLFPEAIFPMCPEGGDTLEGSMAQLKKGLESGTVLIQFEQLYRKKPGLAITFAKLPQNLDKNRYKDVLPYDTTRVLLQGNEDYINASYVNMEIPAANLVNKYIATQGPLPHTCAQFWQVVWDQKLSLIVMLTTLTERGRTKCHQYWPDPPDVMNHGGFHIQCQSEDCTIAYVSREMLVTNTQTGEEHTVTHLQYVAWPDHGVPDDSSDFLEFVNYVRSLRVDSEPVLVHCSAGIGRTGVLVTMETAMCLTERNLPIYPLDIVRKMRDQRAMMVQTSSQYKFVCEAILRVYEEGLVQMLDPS
UniProt Q14160: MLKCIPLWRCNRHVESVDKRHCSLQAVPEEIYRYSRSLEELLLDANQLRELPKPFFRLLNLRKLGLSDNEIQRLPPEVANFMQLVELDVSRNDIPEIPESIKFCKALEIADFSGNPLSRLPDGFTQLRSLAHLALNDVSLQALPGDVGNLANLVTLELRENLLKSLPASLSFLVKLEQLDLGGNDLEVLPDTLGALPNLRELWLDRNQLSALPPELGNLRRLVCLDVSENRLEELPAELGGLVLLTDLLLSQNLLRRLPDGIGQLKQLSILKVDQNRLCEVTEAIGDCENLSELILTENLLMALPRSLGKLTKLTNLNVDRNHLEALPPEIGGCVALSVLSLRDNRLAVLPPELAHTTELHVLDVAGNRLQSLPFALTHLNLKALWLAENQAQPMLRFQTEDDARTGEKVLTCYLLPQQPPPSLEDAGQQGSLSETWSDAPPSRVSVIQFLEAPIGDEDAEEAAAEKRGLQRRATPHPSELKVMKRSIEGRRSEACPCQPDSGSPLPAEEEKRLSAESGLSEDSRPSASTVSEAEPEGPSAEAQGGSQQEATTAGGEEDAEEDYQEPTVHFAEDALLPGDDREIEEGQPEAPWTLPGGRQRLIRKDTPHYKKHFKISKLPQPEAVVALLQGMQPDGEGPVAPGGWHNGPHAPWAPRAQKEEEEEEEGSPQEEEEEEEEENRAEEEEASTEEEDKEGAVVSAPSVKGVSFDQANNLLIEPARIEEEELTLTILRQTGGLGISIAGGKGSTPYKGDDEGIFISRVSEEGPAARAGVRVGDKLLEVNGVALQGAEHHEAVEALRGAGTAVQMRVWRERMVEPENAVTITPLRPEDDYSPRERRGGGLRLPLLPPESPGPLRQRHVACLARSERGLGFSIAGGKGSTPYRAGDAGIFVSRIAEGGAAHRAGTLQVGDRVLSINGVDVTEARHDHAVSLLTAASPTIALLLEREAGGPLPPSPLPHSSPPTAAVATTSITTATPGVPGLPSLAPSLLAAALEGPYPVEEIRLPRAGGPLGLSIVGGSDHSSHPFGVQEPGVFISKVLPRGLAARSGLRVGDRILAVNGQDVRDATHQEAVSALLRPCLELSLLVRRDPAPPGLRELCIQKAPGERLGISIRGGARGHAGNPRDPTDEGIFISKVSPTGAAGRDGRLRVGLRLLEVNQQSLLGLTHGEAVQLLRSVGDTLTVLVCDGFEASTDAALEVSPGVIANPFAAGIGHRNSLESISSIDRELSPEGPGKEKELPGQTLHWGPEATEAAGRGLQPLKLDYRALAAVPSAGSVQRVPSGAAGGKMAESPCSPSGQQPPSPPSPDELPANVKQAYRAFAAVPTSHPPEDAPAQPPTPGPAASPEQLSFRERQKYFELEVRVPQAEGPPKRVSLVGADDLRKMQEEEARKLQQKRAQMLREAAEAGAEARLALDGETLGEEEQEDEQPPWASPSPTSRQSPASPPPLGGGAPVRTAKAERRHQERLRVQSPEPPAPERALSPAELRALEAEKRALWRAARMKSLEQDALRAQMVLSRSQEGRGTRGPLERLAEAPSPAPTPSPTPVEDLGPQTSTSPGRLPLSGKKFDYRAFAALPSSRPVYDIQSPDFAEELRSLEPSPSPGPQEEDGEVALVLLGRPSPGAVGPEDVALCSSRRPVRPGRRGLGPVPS
UniProt O00411, residues 42-1230: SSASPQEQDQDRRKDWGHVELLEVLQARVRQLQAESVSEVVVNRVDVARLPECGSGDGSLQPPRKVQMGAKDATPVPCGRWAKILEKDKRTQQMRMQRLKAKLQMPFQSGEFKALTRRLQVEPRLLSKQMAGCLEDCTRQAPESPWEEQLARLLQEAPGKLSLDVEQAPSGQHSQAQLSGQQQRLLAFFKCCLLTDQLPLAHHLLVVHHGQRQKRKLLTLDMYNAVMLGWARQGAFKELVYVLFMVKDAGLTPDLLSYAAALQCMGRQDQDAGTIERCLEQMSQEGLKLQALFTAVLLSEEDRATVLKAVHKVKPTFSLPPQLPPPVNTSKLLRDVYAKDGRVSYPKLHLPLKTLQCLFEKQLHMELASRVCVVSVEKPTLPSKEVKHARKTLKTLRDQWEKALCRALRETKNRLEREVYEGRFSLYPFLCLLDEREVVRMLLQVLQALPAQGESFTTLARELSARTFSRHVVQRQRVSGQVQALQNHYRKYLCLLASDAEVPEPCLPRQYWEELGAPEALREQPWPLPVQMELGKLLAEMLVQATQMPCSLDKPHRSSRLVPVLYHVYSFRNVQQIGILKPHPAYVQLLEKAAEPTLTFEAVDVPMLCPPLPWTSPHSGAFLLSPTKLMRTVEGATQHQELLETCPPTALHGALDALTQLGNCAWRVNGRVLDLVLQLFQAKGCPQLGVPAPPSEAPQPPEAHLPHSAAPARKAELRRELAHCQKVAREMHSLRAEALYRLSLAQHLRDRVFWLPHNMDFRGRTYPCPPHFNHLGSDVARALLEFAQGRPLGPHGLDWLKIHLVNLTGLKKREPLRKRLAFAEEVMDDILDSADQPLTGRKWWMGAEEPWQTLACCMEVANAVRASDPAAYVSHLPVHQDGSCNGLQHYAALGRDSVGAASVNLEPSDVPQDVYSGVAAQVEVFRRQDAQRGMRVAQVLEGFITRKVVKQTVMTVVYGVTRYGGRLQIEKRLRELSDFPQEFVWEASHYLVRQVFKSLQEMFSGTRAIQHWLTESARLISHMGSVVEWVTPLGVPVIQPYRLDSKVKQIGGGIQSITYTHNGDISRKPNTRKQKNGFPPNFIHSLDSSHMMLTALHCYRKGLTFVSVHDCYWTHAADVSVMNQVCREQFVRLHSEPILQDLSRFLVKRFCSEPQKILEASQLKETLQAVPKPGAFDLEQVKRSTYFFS
UniProt Q9Y4R8: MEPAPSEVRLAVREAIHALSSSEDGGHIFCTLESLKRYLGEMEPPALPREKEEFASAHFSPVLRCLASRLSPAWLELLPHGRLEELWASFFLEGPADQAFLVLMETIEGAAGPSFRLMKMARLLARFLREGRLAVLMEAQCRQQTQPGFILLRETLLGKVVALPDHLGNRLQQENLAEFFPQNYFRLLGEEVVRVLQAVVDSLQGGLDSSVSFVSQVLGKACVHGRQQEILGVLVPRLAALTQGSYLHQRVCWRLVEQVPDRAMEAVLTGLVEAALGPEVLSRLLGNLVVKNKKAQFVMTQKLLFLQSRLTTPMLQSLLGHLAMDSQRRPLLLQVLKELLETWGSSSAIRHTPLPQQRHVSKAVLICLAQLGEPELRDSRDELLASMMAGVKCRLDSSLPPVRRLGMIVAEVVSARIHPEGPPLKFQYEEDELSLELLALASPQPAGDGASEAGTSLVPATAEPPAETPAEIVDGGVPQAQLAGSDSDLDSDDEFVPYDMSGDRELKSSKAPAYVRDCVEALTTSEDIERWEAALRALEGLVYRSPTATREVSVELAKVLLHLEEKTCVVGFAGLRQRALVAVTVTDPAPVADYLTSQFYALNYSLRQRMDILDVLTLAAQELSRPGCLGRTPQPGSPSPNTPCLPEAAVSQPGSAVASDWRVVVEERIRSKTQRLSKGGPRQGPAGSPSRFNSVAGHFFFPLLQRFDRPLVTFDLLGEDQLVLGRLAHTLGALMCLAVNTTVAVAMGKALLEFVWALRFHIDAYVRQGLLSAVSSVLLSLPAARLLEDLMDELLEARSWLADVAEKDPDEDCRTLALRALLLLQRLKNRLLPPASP
UniProt P63167: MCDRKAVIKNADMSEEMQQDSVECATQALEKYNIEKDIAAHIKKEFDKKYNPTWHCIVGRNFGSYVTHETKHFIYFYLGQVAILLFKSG
UniProt Q9UBS4, residues 23-358: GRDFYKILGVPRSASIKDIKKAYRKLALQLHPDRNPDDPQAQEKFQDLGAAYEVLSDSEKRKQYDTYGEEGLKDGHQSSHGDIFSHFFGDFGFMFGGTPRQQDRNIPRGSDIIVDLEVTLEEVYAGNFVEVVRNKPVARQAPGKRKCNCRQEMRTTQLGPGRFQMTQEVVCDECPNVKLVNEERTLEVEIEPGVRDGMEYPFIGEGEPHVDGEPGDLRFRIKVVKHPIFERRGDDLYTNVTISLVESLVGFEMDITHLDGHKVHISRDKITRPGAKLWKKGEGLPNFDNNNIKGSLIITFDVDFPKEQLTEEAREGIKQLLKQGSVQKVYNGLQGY
UniProt P62993: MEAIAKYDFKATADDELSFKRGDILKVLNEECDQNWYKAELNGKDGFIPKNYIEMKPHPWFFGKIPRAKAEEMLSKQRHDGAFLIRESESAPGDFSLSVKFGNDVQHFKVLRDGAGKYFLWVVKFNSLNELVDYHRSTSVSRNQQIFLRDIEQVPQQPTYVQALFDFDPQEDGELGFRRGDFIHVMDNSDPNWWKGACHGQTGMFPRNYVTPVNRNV

Results are given in words; binding and its absence hold for the method and conditions named. Binding seen in cells or lysates may run through a third protein. Here binding means that the protein was enriched with, or labelled near, the bait; the list need not be complete. For some of these results: Tags and fused reporters may be left off the sequences shown.

Holding throughout (test): affinity purification with mass spectrometry; SF-TAP tagged phosphatase subunit transiently expressed in HeLa, with or without 50 ng/ml TNFα (10 min), SILAC; one step Strep purification on Strep-Tactin-Superflow beads; control SF-TAP alone; LC-MS/MS
For assay [1], the target named is T1, SF-TAP-tagged PTPN21 (human) (UniProt Q16825).
T1 sequence: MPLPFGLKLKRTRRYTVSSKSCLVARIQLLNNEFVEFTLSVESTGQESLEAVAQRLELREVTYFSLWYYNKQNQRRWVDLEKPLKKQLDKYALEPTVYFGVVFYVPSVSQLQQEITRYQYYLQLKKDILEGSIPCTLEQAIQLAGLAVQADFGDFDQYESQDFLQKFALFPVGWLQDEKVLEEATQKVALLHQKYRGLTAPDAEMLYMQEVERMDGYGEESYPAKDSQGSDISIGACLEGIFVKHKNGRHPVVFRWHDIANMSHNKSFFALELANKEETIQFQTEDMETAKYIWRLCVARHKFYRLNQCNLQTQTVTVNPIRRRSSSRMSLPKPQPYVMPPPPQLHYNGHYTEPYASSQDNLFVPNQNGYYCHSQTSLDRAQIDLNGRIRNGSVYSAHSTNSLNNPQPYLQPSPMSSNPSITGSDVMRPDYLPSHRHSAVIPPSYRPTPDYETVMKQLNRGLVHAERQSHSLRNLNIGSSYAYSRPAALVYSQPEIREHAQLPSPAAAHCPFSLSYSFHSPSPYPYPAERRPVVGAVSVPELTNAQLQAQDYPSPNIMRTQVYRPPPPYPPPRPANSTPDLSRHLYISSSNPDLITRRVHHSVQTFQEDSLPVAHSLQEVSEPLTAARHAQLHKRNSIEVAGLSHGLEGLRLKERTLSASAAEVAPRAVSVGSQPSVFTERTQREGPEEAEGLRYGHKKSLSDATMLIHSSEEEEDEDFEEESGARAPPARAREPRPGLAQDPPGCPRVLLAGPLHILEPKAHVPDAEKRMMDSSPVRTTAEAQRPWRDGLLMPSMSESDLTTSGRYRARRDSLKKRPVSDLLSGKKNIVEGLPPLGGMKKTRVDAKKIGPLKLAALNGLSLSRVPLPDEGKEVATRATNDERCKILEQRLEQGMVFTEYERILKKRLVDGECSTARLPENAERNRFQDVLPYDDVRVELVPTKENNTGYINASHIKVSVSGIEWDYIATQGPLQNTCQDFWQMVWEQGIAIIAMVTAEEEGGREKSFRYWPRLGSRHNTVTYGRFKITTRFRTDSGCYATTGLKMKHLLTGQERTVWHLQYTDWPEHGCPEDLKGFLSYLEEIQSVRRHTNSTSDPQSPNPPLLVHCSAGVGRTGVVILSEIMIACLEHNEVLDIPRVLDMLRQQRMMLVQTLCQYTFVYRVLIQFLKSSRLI

Assay [2] has as its target T2, SF-TAP-tagged DUSP26 (human) (UniProt Q9BV47).
T2 sequence: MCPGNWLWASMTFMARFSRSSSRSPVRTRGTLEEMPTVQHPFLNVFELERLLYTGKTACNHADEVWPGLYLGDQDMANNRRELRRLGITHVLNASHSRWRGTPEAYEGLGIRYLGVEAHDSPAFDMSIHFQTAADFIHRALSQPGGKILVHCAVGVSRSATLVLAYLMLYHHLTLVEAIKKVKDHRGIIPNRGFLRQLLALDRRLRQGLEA

Assay [3] concerns the target SF-TAP-tagged PTPN3 (human) (UniProt P26045).
For assay [4], the target named is SF-TAP-tagged PPP2CA (PP2A catalytic subunit) (human) (UniProt P67775).
For assay [5], the target named is T3, SF-TAP-tagged DUSP18 (human) (UniProt Q8NEJ0).
T3 sequence: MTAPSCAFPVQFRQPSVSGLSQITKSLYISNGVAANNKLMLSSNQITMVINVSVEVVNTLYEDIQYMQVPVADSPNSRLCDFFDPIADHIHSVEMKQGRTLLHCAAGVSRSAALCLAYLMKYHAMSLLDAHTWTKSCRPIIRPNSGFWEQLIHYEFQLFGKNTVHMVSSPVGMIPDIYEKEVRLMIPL

Regarding UBR (human (endogenous in HeLa)), the binding result in assay [1] is recorded as “binds”.
Take “SCRIB (endogenous) (from UniProt Q14160 1-1655)”: the binding entry in assay [2] is listed as “binds”.
As to POLRMT1 (from UniProt O00411 42-1230), the binding result in assay [3] was “binds”.
On to TELO2 (from UniProt Q9Y4R8 1-837), for which, in assay [2], the binding entry is “binds”.
Turning to “the dynein protein, DLC1 (from UniProt P63167 1-89)”, the binding entry in assay [4] and in assay [1] was “binds” in each case.
Take SQSTM (from UniProt Q13501 1-440): in assay [4], the binding entry was “binds”.
As for DNAJB11 (from UniProt Q9UBS4 23-358), in assay [1], the binding result is “binds”.
As for “scaffold protein GRB2 (from UniProt P62993 1-217)”, the binding entry in assay [1] is reported as “binds”.

B1: catalase (enzyme, UniProt P04040 1-527)
chain: MADSRDPASDQMQHWKEQRAAQKADVLTTGAGNPVGDKLNVITVGPRGPLLVQDVVFTDEMAHFDRERIPERVVHAKGAGAFGYFEVTHDITKYSKAKVFEHIGKKTPIAVRFSTVAGESGSADTVRDPRGFAVKFYTEDGNWDLVGNNTPIFFIRDPILFPSFIHSQKRNPQTHLKDPDMVWDFWSLRPESLHQVSFLFSDRGIPDGHRHMNGYGSHTFKLVNANGEAVYCKFHYKTDQGIKNLSVEDAARLSQEDPDYGIRDLFNAIATGKYPSWTFYIQVMTFNQAETFPFNPFDLTKVWPHKDYPLIPVGKLVLNRNPVNYFAEVEQIAFDPSNMPPGIEASPDKMLQGRLFAYPDTHRHRLGPNYLHIPVNCPYRARVANYQRDGPMCMQDNQGGAPNYYPNSFGAPEQQPSALEHSIQYSGEVRRFNTANDDNVTQVRAFYVNVLNEEQRKRLCENIAGHLKDAQIFIQKKAVKNFTEVHPDYGSHIQALLDKYNAEKPKNAIHTFVQSGSHLAAREKANL
Take B1: the binding entry in assay [5] is listed as “binds”.
